# Experimental data taken from publication PMC10766976.
# By UniProt entry, the sequences of proteins in these tests, tags left out. Where a name states a change or a piece, a line headed by the entry shows the natural chain unless it says otherwise.
# UniProt P37231: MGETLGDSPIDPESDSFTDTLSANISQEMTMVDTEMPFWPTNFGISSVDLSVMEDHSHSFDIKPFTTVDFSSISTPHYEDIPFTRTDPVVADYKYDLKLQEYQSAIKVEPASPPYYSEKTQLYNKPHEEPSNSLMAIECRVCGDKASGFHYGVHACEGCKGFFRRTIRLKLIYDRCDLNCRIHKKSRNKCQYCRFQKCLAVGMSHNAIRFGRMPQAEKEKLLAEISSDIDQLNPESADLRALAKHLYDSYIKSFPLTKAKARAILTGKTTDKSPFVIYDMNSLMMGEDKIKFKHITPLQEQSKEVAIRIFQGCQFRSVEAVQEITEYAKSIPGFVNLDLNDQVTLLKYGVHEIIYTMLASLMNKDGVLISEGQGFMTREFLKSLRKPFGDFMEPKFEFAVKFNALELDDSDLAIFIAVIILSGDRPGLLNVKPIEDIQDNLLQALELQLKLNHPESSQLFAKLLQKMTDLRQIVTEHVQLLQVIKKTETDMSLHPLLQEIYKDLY
# UniProt Q9H5C8: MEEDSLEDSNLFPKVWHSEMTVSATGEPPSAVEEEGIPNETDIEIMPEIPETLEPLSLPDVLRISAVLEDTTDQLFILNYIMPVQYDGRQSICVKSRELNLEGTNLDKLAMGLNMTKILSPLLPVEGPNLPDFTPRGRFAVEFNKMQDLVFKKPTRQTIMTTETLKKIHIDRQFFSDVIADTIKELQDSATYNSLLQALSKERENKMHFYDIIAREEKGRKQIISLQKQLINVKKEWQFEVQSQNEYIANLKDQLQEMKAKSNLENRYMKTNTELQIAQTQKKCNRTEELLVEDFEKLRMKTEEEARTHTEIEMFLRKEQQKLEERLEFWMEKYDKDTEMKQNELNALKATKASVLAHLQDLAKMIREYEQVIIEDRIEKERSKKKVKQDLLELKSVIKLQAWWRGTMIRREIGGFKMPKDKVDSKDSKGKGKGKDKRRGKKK
# UniProt P13645: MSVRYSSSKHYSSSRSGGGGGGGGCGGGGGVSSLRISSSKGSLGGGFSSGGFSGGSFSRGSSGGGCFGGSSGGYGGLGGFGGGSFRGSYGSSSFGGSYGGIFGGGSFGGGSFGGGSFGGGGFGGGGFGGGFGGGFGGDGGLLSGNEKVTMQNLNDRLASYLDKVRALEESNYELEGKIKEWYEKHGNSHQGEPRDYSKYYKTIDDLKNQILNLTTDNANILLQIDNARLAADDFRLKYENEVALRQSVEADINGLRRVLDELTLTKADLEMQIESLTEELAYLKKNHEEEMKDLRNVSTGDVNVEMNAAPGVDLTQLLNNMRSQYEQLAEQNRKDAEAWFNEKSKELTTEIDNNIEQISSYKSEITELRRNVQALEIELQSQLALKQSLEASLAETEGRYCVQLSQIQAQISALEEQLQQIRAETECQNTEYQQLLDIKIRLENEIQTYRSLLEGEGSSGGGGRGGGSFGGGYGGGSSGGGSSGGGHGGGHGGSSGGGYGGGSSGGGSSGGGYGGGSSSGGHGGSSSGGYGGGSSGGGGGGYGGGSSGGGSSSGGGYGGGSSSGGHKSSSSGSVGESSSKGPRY
# These are yes or no findings as the source states them, for the method shown. Binding seen in cells or lysates may run through a third protein. These calls come from enrichment with a bait or labelling near it, and not all partners need be listed.
# Target: Peroxisome proliferator-activated receptor-gamma (PPARγ) (human (endogenous in SW480)) (UniProt P37231)
# Test: affinity purification with mass spectrometry; IP with PPARγ Ab or IgG (bead control) from cytosolic lysates of SW480 cells in detergent-free hypotonic lysis buffer (20 mM Tris-HCl pH 7.4, 2 mM EGTA, 2 mM MgCl2, protease inhibitors, 5 mM Na3VO4, 1 mM DTT); SDS-PAGE, silver staining, bands cut and sequenced by MS
row,binding,Substance
1,binds,cytoplasmic IQ domain-containing protein G / dynein regulatory complex subunit 9 (from UniProt Q9H5C8)
2,binds,keratin type I cytoskeletal 10 (from UniProt P13645 1-584)
